Consider 59 molecules from PubChem BioAssay AID2685 (National Center for Advancing Translational Sciences (NCATS), 2010).

The list shows a part of the results. Further columns of the screen follow, without active or inactive calls. Compounds called inactive in the main read-out are mostly missing here. Words in brackets tell the shape of the fitted curve; partial curves, single points and poor fits give uncertain potencies.

This test can be described thus: qHTS Assay for Lipid Storage Modulators in Drosophila S3 Cells.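 As to cell number change: cells counted by Cell Tracker Red CMTPX staining in the red channel.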 The following applies: BODIPY lipid droplet fluorescence, 18-24 h; for cell number change: measured here: cell count max response, cells fed with added oleic acid. In short, it runs like this: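 Laser-scanning cytometry quantifies lipid droplet accumulation (500–530 nm total intensity; droplet/cell object ratio) in oleic acid-fed (400 uM added) Drosophila S3 cells treated with a concentration series. 20 uM Triacsin C defined 100% inhibition.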
(qHTS replaces the single test concentration by a dilution series.)

Where [1] appears, read: measured here: cell number channel AC50, cells fed with added oleic acid.
Where [2] appears, read: measured here: lipid fluorescence (Fed channel) AC50, cells fed with added oleic acid.

For the molecule `CC(=O)c1ccc(S(=O)(=O)NCc2cccnc2)cc1`, the half-maximal activity concentration (AC50) (in general, the concentration at which the activity in the assay is half-maximal) under setting [1] was 0.82 µM [rising, full curve, poor fit].

`COc1ccc(Cc2nnc3c4cnn(C)c4ncn23)cc1`: the cell number change came out at 10%.

`CN1C(=S)SC(/[N+]([O-])=C\c2ccco2)C1(C)C` (configuration not stated): the cell number change was 2.81%.

`CCN1CCN(C(=O)c2ccc(N3CC4CC(C3)c3cccc(=O)n3C4)c(NC(=O)c3cc(OC)cc(OC)c3)c2)CC1` (configuration not stated): the cell number change was 6.26%. For the same molecule, under setting [2], the half-maximal activity concentration (AC50) is 6.51 µM [rising, single point].

Take `O=C(Nc1ccc(N2CCN(C(=O)c3ccc(Cl)cc3)CC2)cc1)c1cc2ccccc2o1`: the cell number change was -21.6%. The AC50 under setting [2] is 23.1 µM [falling, single point].

In the case of `COc1ccc(N2CCN(C(=O)c3cn(Cc4ccccc4)nc3-c3cccnc3)CC2)cc1`, the cell number change was -11.4%.

For the molecule `O=C(NC(=S)Nc1ccc(N2CCOCC2)cc1)c1cccs1`, the cell number change was -27.5%. For the same molecule, the half-maximal activity concentration (AC50) under setting [2] is 18.4 µM [falling, partial curve, poor fit].

`COc1cccc(NS(=O)(=O)c2ccc(OC)c(OC)c2)c1`: the cell number change was -12.7%. Besides, the AC50 under setting [2] is 13 µM [rising, single point].

For `COc1cccc(NC(=O)COC(=O)c2c(C)noc2C)c1`, the cell number change worked out at 7.27%. The half-maximal activity concentration (AC50) under setting [1] is 0.00517 µM [falling, full curve, poor fit]. Moreover, the concentration at half-maximal activity (AC50) under setting [2] is 5.8 µM [rising, full curve].

Turning to `COc1ccc(C(F)(F)F)cc1N/C=C/c1nnnn1-c1ccc2ccccc2c1`, the cell number change was 22.5%. Moreover, the AC50 under setting [2] is 29.1 µM [rising, single point].

For the molecule `N#CCc1nc(CSc2nc3ccccc3s2)cs1`, the concentration at half-maximal activity (AC50) is 6.51 µM [rising, single point] under setting [1] and 5.8 µM [rising, single point] under setting [2].

In the case of `CC(C)OCCCNC(=O)c1ccccc1Oc1ccccc1`, the cell number change was determined as 11.2%. In addition, the concentration at half-maximal activity (AC50) under setting [2] is 29.1 µM [rising, single point].

Regarding `Cc1ccnc(NC(=O)c2ccc3c(c2)C(=O)N(CC2CCCO2)C3=O)c1` (configuration not stated), the cell number change was -12.7%. Also, under setting [1], the AC50 was 1.64 µM [falling, single point].

Consider `C=CCn1c(C)nc2c(cnn2-c2ccccc2)c1=O`, for which the cell number change was determined as 36.8%. In addition, the AC50 under setting [1] was 32.6 µM [rising, single point]. The AC50 under setting [2] was 2.59 µM [falling, partial curve, poor fit].

Regarding `O=C(Nc1ccc(Nc2ccccc2)cc1)c1c(F)c(F)c(F)c(F)c1F`, the cell number change is -21.4%. For the same molecule, the AC50 under setting [2] is 6.51 µM [falling, single point].

`CCCS(=O)(=O)c1csc(C(=O)OC)c1N`: the cell number change was 12.1%. Besides, the AC50 under setting [2] is 0.231 µM [rising, full curve, poor fit].

Turning to `COc1ccc(C2(C)CC(C)(C)Nc3ccccc32)cc1` (configuration not stated), the cell number change is -7.66%.

Regarding `CC(=O)CCSc1nnc(-c2cccc(S(=O)(=O)N3CCOCC3)c2)o1`, the cell number change came to 5.01%. For the same molecule, the half-maximal activity concentration (AC50) under setting [1] is 0.517 µM [falling, single point]. The concentration at half-maximal activity (AC50) under setting [2] is 0.517 µM [falling, single point].

Regarding `O=C(CN1C(=O)C(=O)N(Cc2ccccc2)C1=O)c1ccc[nH]1`, the cell number change turned out to be 30.5%. Besides, the AC50 under setting [1] was 0.00411 µM [rising, full curve, poor fit]. Besides, the AC50 under setting [2] is 25.9 µM [rising, partial curve].

With `COc1cc2ccccc2cc1C(=O)N(CCN(C)C)c1nc2c(F)cccc2s1`, the cell number change came to 29.7%. Under setting [2], the AC50 is 1.3 µM [rising, partial curve].

With `CC(=O)Nc1ccc(S(=O)(=O)NC2(C(F)(F)F)N=C(c3ccccc3)NC2=O)cc1` (configuration not stated), the cell number change was -107%. For the same molecule, under setting [1], the AC50 is 29.1 µM [falling, partial curve]. Further, under setting [2], the AC50 was 13 µM [falling, partial curve].

In the case of `COc1cc(NC(=O)Cn2cnc3sc(C)c(S(=O)(=O)N4CCN(C)CC4)c3c2=O)cc(OC)c1OC`, the concentration at half-maximal activity (AC50) under setting [1] is 0.116 µM [falling, partial curve, poor fit].

Regarding `Cc1ccc(Nc2c(-c3ccc(N4CCOCC4)cc3)nc3ncccn23)cc1C`, the cell number change was 12%. Moreover, under setting [2], the AC50 is 4.11 µM [rising, single point].

For the molecule `CCCCN(CCCNC(=O)C1CCN(S(=O)(=O)CC)CC1)c1ccccc1`, the cell number change is -24.4%. Moreover, the AC50 under setting [2] was 25.9 µM [falling, single point].

In the case of `Cc1cc(N/N=C/c2cccc(Cl)c2)nc(NCc2ccccc2)n1`, the cell number change is -91.2%. The half-maximal activity concentration (AC50) under setting [1] was 29.1 µM [falling, single point]. Besides, the half-maximal activity concentration (AC50) under setting [2] was 0.82 µM [rising, partial curve].

Take `CCN(CC)C(=O)CSc1nnc(COc2cccc(C)c2)n1C`: the cell number change is -26.1%. Further, the concentration at half-maximal activity (AC50) under setting [2] is 10.3 µM [falling, partial curve].

Take `COc1ccc(CNC(=O)CSc2nc3ccc(C)cc3[nH]2)cc1OC`: the cell number change is -15.3%. Besides, under setting [1], the concentration at half-maximal activity (AC50) is 0.731 µM [rising, single point].

`CN(CCCNC(=O)c1cn(C)c2ccc(S(=O)(=O)N(C)C)cc2c1=O)c1ccccc1`: the cell number change is -21.3%. Also, the concentration at half-maximal activity (AC50) under setting [2] is 20.6 µM [falling, single point].

As to `CCN(Cc1ccccc1)c1ccc(N=Nc2nn(C)c(C)c2[N+](=O)[O-])cc1`, the cell number change is -92.1%. Besides, the AC50 under setting [1] is 29.1 µM [falling, single point]. Also, the concentration at half-maximal activity (AC50) under setting [2] is 1.64 µM [rising, partial curve].

Turning to `CC1(c2ccc(OC(F)F)cc2)NC(=O)N(CC(=O)Nc2ccc(OC(F)F)cc2)C1=O` (configuration not stated), the cell number change was -11.8%. Besides, the AC50 under setting [2] is 5.62 µM [falling, single point].

Consider `CCOc1ccc(-n2c(Cc3cc(=O)[nH]c(=O)[nH]3)nnc2SCC(=O)NC2CCCC2)cc1`, for which the cell number change came to 5.94%. Under setting [2], the AC50 is 0.517 µM [falling, partial curve, poor fit].

As to `CC(C)CN(C(=O)CN1CCN(S(=O)(=O)c2ccc3ccccc3c2)CC1)c1c(N)n(CC(C)C)c(=O)[nH]c1=O`, the cell number change is 4.74%. In addition, the AC50 under setting [2] was 29.1 µM [falling, single point].

On to `COc1ccc(CCNC(C(=O)Nc2cc(C)cc(C)c2)c2ccccc2)cc1` (configuration not stated), for which the cell number change turned out to be 22.9%. For the same molecule, under setting [2], the AC50 was 5.8 µM [rising, single point].

Consider `Oc1ccccc1Cn1nnc2ccccc21`, for which the cell number change is -30%. Under setting [1], the AC50 is 20.6 µM [falling, single point]. Under setting [2], the AC50 is 29.1 µM [falling, single point].

On to `O=C(CSc1nnc(-c2ccccc2)o1)Oc1ccc(Br)cc1`, for which the concentration at half-maximal activity (AC50) reads like this: under setting [1], 0.291 µM [falling, partial curve, poor fit]; under setting [2], 0.58 µM [falling, single point].

For `O=C(Nc1ccccc1)Nc1nnc(-c2ccccc2)o1`, the cell number change was -13.4%.

Turning to `O=C(N/N=C/c1ccc2nccnc2c1)c1cccc([N+](=O)[O-])c1`, the cell number change was 25.2%.

For `CCOC(=O)c1cnc2c(C)cccc2c1Nc1ccc(N2CCOCC2)cc1`, the cell number change is -18%. Also, under setting [1], the concentration at half-maximal activity (AC50) is 3.66 µM [rising, single point]. In addition, under setting [2], the AC50 is 16.4 µM [falling, partial curve, poor fit].

As to `O=C(CSc1cn(CCNC(=O)c2cccs2)c2ccccc12)NC1CCCC1`, the cell number change came to 1.89%.

Regarding `CCOC(=O)c1c(C)c(C)n(Cc2cccc(OC)c2OC)c1C`, the AC50 under setting [2] was 18.4 µM [rising, single point].

With `CCC1CCCCN1S(=O)(=O)c1ccc(-n2cnnn2)c(C)c1` (configuration not stated), the cell number change is -9.4%.

Turning to `CCOC(=O)CSc1nnc(Cn2nnc(-c3ccccc3)n2)n1CC`, the AC50 under setting [2] is 29.1 µM [falling, single point].

With `Cc1sc2nc3c4ccccc4c(NCc4ccco4)nn3c(=O)c2c1C`, the AC50 is, setting by setting: under setting [1], 6.51 µM [rising, single point]; under setting [2], 6.51 µM [rising, single point].

Turning to `CC/C(=N\NC(=O)c1c[nH]c2ccccc12)c1cccs1`, the cell number change is -10.6%. For the same molecule, under setting [2], the concentration at half-maximal activity (AC50) was 0.164 µM [falling, full curve, poor fit].

Take `CCN1C(=O)CC(N2CCN(c3ccc(OC)cc3)CC2)C1=O` (configuration not stated): the cell number change is -1.79%.

With `CC1CCN(C(=O)c2cc(-c3ccc4c(c3)OCO4)on2)CC1`, the cell number change was found to be 5.56%. Also, under setting [2], the AC50 is 6.51 µM [rising, single point].

For `C/C=C/c1ccc(OCC(=O)N(C)CC(=O)Nc2ccc(F)cc2)c(OC)c1`, the cell number change is -2.03%. In addition, the AC50 under setting [2] is 0.291 µM [rising, partial curve, poor fit].

As for `COc1ccc2ccccc2c1/C=N/NC(=S)Nc1cc(S(=O)(=O)N2CCOCC2)ccc1N1CCOCC1`, the cell number change stood at 6.51%.

With `Cc1ccccc1NC(=O)COC(=O)C1=COCCO1`, the cell number change is 22.7%. The half-maximal activity concentration (AC50) under setting [2] is 2.59 µM [rising, full curve].

`COc1cccc(-n2nnnc2SCC(=O)Nc2ccc3c(c2)OCCO3)c1`: the cell number change is -10.7%. Besides, the AC50 under setting [1] was 1.84 µM [rising, partial curve]. For the same molecule, the AC50 under setting [2] is 1.84 µM [rising, partial curve].

As for `O=C1Nc2ncccc2OC1CCO` (configuration not stated), the concentration at half-maximal activity (AC50) under setting [2] is 0.146 µM [falling, full curve, poor fit].

In the case of `CC(C)(C)OC(=O)NCCCC[C@H](NC(=O)c1nc[nH]c1C(=O)NCc1ccc(CNC(=O)OC(C)(C)C)cc1)C(=O)OC(C)(C)C`, the cell number change was 6.89%. Also, under setting [2], the AC50 is 29.1 µM [falling, single point].

Regarding `CCn1c(C)nc2cc(C(=O)NNS(=O)(=O)c3c(F)cc(F)c(Cl)c3F)ccc21`, the cell number change was determined as 24.7%.

In the case of `Oc1c(N=NC(=S)Nc2ccccc2F)c2ccccc2n1Cc1ccc(F)cc1`, the cell number change was -34.4%. Further, the AC50 under setting [1] is 20.6 µM [falling, single point]. In addition, the AC50 under setting [2] was 29.1 µM [falling, single point].

As to `Cc1c(C(=O)Nc2ccccn2)oc2ccccc12`, the cell number change is -20.7%. Moreover, the concentration at half-maximal activity (AC50) under setting [2] is 0.651 µM [rising, single point].

For the molecule `CCC(C)(C)C1CCC2(CC1)NC(=O)N(CC(=O)N(C)CC(=O)Nc1ccccc1C(F)(F)F)C2=O` (configuration not stated), the cell number change amounted to 3.24%. The concentration at half-maximal activity (AC50) under setting [2] is 9.2 µM [falling, single point].

As for `C[C@@H]1CC=C[C@H]2[C@H]1C(=O)N(Cc1ccccc1)[C@H]2c1ccc(F)c(-c2ccc(N(C)C)cc2)c1`, the cell number change is -28.1%.

Turning to `c1ccc(-c2nnnc3ccccc23)cc1`, the cell number change stood at 5.01%. For the same molecule, under setting [2], the half-maximal activity concentration (AC50) is 0.103 µM [rising, full curve, poor fit].

Take `O=[N+]([O-])c1ccc(S(=O)(=O)Nc2ccc(S(=O)(=O)N3CCCC3)cc2)cc1`: the cell number change was -8.97%. Besides, the AC50 under setting [2] was 6.51 µM [rising, partial curve, poor fit].
